Test results from the supplement of paper PMC12889115.
The other results are listed elsewhere or left out. These are raw signals, not scaled to a control.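 In the initial screen, polymyxin B was used at a concentration that permeabilizes Salmonella's outer membrane but not its inner membrane. Maximum growth was set by DMSO wells with or without polymyxin B. Since plates varied, data were ranked per plate, and compounds giving the lowest OD600 advanced as hits.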

Tested on: Salmonella enterica serovar Typhimurium SL1344
Experiment: bacterial growth OD600 after 18 h with compound and polymyxin B; higher = more bacterial growth (less inhibition)
Conditions: 50 µM, Mueller-Hinton broth

SMILES | bacterial growth OD600 (polymyxin B 0.75 µg/mL) | bacterial growth OD600 (polymyxin B 1 µg/mL)
CN(Cc1ccc(-n2cccn2)cc1)C(=O)c1cn(C2CC2)cc(C(=O)NC2CCCCC2)c1=O | 0.762 | 
COC(=O)[C@]1(C)C[C@H](C(=O)NCCSC)[C@H](c2ccccc2Cl)N1C | 0.696 | 
Cc1ccc(-n2cccn2)c([C@@H]2C[C@H]3CN(C4CCCC4)C(=O)[C@]34CCCN24)c1 |  | 0.001
O=C(CCC1CCCN(Cc2ccc3c(c2)OCCO3)C1)Nc1ccccc1F (stereo not given) |  | 0.947
COc1ccccc1C(=O)N[C@@H]1c2ccccc2C2(CCN(C(=O)c3cccc(C)n3)CC2)[C@H]1OC | 0.861 | 
Cc1cc(OCc2cc(C(=O)N(C)Cc3cnccn3)no2)cc(C)c1Cl |  | 0.891
O=C(c1cnccn1)N1CCCC(CCc2ccccc2)C1 (stereo not given) | 0.92 | 
Cc1nn(C)c(C)c1C(C)NC(=O)c1ccc(OC2CCN(C(=O)C3CC3)CC2)cc1 (stereo not given) |  | 0.931
COCC1CCN(C(=O)c2cc(Cn3cnc4ccccc43)[nH]n2)CC1 |  | 1.24
Cc1ccc(C)c(-n2cc(CN3CCC(O)CC3)c(-c3ccccc3)n2)c1 |  | 0.873
Cc1cccnc1CN1CCN(C(=O)c2cn(CCC3CCCCC3)nn2)CC1 |  | 0.835
CCOC(=O)CCNc1ccc(-c2nc(Cc3ccccc3)no2)cn1 | 0.432 | 
Cc1nc(CC(=O)N(Cc2ccncc2)Cc2cccc(OCCc3ccc(F)cc3)c2)cs1 | -0.001 | 
COc1ccc(CCN2CCCC(CN(C)Cc3cc(OC)c(O)cc3Cl)C2)cc1 (stereo not given) | 0.834 | 
Fc1cccc(CN2CCC(C3CCN(CCCn4cccn4)C3)CC2)c1F (stereo not given) | 0.761 | 
C=CCCC(=O)N1CCCC(Nc2ccc(F)c(F)c2)C1 (stereo not given) |  | 0.888
Cc1ccc2c(c1)CN(C(=O)c1ccc(N3CCOCC3)cc1)CC(c1ccsc1)O2 (stereo not given) | 0.004 | 
Cc1cc(C(=O)N2CCC3(CCCN(CCC4CCCCC4)C3)C2)nn1C (stereo not given) |  | 0.897
O=C(c1ccoc1)N1CCC2(CCCN(Cc3ccc(F)cc3)C2=O)C1 (stereo not given) |  | 0.934
CCn1cc(C(=O)N2CCCC(C(=O)c3ccc4c5c(cccc35)CC4)C2)cn1 (stereo not given) |  | 0.566

Reformatted tab-delimited: 2 of the compounds above.
SMILES	bacterial growth OD600 (polymyxin B 0.75 µg/mL)	bacterial growth OD600 (polymyxin B 1 µg/mL)
O=C(c1ccoc1)N1CCC2(CCCN(Cc3ccc(F)cc3)C2=O)C1 (stereo not given)		0.934
CCn1cc(C(=O)N2CCCC(C(=O)c3ccc4c5c(cccc35)CC4)C2)cn1 (stereo not given)		0.566
